# This list was built around the results that the source calls inconclusive (neither active nor inactive); the mix of calls is not that of the screen. Potencies of inconclusive entries are doubtful fits and often do not repeat. The source holds several records for some structures; these can differ, active in one and inactive in another. Active and inactive are the calls of the source. The calls were made as follows: active = hit-call score of the fitted dose curve at least 0.9, where 1 is the maximum; inconclusive = response in the unintended direction; inactive = score below 0.9.
# Amino acid sequences for entries named in this document (tags omitted).
# UniProt P42336, whole entry, looked up: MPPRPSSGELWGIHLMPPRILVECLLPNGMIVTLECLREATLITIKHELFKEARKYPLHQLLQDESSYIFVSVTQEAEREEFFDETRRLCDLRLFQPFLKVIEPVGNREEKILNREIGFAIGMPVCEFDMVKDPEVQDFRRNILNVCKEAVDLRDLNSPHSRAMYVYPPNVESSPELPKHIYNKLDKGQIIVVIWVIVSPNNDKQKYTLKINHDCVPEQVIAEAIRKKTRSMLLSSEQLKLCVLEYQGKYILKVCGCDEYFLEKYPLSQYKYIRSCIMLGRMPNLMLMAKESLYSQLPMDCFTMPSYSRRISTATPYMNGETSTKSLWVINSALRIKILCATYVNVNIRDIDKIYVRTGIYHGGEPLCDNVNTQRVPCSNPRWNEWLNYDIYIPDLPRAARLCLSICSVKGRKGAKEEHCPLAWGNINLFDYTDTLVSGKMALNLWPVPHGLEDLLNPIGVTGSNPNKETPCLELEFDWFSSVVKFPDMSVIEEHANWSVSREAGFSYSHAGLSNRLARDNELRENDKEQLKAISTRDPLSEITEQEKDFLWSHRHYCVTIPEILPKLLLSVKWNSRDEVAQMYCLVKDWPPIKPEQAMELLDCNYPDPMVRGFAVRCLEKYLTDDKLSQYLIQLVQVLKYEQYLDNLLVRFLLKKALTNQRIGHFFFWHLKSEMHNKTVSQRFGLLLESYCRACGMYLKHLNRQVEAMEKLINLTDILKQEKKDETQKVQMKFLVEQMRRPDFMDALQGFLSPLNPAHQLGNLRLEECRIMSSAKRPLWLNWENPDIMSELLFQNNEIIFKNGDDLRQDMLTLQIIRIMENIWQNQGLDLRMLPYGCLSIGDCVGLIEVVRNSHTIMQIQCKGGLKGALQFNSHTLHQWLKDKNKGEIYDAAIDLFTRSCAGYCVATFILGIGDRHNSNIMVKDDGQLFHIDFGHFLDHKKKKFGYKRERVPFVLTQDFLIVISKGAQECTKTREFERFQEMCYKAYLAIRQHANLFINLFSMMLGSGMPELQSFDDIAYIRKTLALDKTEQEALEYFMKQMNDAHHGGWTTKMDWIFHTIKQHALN
# Molecular target: human Phosphoinositide 3-kinase alpha (PI3Ka), PIK3CA (gene 5290) (UniProt P42336)
# Assay: NVS_ENZ_hPI3Ka: NovaScreen (NVS) Enzymatic Assay for human Phosphoinositide 3-kinase alpha (PI3Ka) (AID 2283196)
# Outline: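 Recombinant human PI3Kα with fluorescent substrate, 1 h, product separated by electrophoretic mobility shift; 25 uM duplicate screen, hits (e.g., 30% inhibition) retested singly up to 50 uM; loss of signal vs DMSO.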
SMILES,AC50,outcome
CC1(C)CC(=O)CC(C)(C)N1,inconclusive: 21.6 µM,–
OC1C(O)C(O)C(O)C(O)C1O (stereo unspecified),inconclusive: 46.9 µM,–
C=CCOCC(O)CCl (stereo unspecified),inconclusive: 26.5 µM,–
COc1cccc(-c2ccc(/C=C\CN3CCCCCC3)cc2Cl)c1,inconclusive: 5.27 µM,–
CC1=NN(c2ccccc2)C(=O)C1,inconclusive: 28.2 µM,–
CCCOCCC,–,inactive
OCC(CO)(CO)COCC(CO)(CO)CO,inconclusive: 0.12 µM,–
CCO[Si](CCC#N)(OCC)OCC,inconclusive: 14.2 µM,–
Nc1ncnc2nc[nH]c12,inconclusive: 28.1 µM,–
Cc1ccc(N)cc1O,–,inactive
COc1ccccc1NC(=O)CC(C)=O,inconclusive: 25 µM,–
O=C(O)c1ccc2c(c1)nc(C(=O)NC1CCN(C3CC3)CC1)n2Cc1cc(-c2ccc(Cl)s2)on1,inconclusive: 0.106 µM,–
CCCCCCCCCCCCCC[N+](C)(C)C,active: 8.66 µM,–
CCCOC(=O)CCCCC(=O)OCCC,active: 2 µM,–
CCCCC(CC)C(=O)OCCOCCOCCOCCOC(=O)C(CC)CCCC (stereo unspecified),–,inactive
Oc1ccc(/C=C/c2cc(O)cc(O)c2)cc1,–,inactive
CCCCCCCCCCCCCCCC[N+](C)(C)CC,active: 1.95 µM,–
CCCCCC1=CCCC1=O,inconclusive: 25 µM,–
CCCCCCCCCCCCCCCCOS(=O)(=O)O,active: 3.42 µM,–
CCCCCCCCCCCC(C)=O,inconclusive: 25 µM,–
O=C1c2c(O)ccc(Nc3ccc(CCO)cc3)c2C(=O)c2c([N+](=O)[O-])ccc(O)c21,active: 2.07 µM,–
CO[Si](CCCS)(OC)OC,active: 39 µM,–
CCc1c(C(=O)NN2CCCCC2)nn(-c2ccc(Cl)cc2Cl)c1-c1ccc(Br)cc1,–,inactive
CNC(=S)N(C)C,–,inactive
CCOC(=O)/C=C\C(=O)OCC,inconclusive: 25 µM,–
CC(C)(c1ccc(O)cc1)c1ccc(O)cc1,active: 25.4 µM,inactive
CCn1c2ccccc2c2cc(N)ccc21,active: 9.32 µM,–
C/C=C\C/C=C/CCCCCCCCOC(C)=O,inconclusive: 1.36 µM,–
COCCOCCOCCOCCOC,–,inactive
CCN(CC)C(=O)c1cc(S(=O)(=O)Cc2ccccc2)c(N2CCC(c3ccccc3)CC2)cc1N(CC)CCN(C)C,inconclusive: 0.732 µM,–

# 2 of the compounds above, with tabs.
SMILES	AC50	outcome
CC1(C)CC(=O)CC(C)(C)N1	inconclusive: 21.6 µM	–
OC1C(O)C(O)C(O)C(O)C1O (stereo unspecified)	inconclusive: 46.9 µM	–

# Reference: PubChem BioAssay (EPA / NIEHS)
